Source: PMC7938888, “Antidepressant drugs act by directly binding to TRKB neurotrophin receptors” (Cell, 2021)
No constants are given. Whether binding was seen depends on the method and setting. Some results given as binding are weak or reduced against the parent protein; the word gives no strength.

Amino acid sequences for entries named in this document (tags omitted). Residues count along the entry.
UniProt Q63604, residues 32-821: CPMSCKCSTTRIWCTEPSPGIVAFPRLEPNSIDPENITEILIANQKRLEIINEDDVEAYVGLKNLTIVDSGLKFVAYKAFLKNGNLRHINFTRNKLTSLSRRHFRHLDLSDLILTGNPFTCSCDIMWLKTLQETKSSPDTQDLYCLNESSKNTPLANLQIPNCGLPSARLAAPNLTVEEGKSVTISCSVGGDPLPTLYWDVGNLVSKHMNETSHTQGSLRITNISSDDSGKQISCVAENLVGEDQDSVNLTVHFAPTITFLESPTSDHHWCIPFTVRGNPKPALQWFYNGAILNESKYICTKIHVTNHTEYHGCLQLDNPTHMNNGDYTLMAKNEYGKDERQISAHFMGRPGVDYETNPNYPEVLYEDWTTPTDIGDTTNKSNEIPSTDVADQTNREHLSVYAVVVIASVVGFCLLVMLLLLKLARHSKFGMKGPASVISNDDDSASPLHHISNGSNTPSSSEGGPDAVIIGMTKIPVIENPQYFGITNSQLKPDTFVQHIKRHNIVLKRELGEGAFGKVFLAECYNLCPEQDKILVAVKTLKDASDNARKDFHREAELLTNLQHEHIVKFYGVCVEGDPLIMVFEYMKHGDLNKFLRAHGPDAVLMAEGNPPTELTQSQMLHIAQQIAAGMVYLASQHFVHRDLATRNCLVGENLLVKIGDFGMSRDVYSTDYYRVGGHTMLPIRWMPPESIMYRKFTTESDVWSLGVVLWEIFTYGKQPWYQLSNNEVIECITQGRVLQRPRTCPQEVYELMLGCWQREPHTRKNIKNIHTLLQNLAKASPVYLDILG

Target: TRKB, endogenous in rat cortical cells (rat (endogenous in cultured cortical cells)) (UniProt Q63604)
Experiment: ELISA; sandwich ELISA on cell lysates: plate coated with capturing anti-TRKB or anti-PLC-γ1 antibody, lysate overnight at 4°C, detection with antibody against PLC-γ1 or pTRKB.Y816 and HRP-conjugate, ECL; cells treated before lysis with BDNF, NGF, cholesterol, β-cyclodextrin, pravastatin or antidepressants

- binding: binds
B1: phospholipase C-γ1 (PLC-γ1), endogenous in rat cortical cells (enzyme, UniProt P10686 1-1290)
chain: MAGVGTPCANGCGPSAPSEAEVLHLCRSLEVGTVMTLFYSKKSQRPERKTFQVKLETRQITWSRGADKIEGSIDIREIKEIRPGKTSRDFDRYQEDPAFRPDQSHCFVILYGMEFRLKTLSLQATSEDEVNMWIKGLTWLMEDTLQAATPLQIERWLRKQFYSVDRNREDRISAKDLKNMLSQVNYRVPNMRFLRERLTDFEQRSGDITYGQFAQLYRSLMYSAQKTMDLPFLETNTLRTGERPELCQVSLSEFQQFLLEYQGELWAVDRLQVQEFMLSFLRDPLREIEEPYFFLDELVTFLFSKENSVWNSQLDAVCPETMNNPLSHYWISSSHNTYLTGDQFSSESSLEAYARCLRMGCRCIELDCWDGPDGMPVIYHGHTLTTKIKFSDVLHTIKEHAFVASEYPVILSIEDHCSIAQQRNMAQHFRKVLGDTLLTKPVDIAADGLPSPNQLKRKILIKHKKLAEGSAYEEVPTSVMYSENDISNSIKNGILYLEDPVNHEWYPHYFVLTSSKIYYSEETSSDQGNEDEEEPKEASGSTELHSSEKWFHGKLGAGRDGRHIAERLLTEYCIETGAPDGSFLVRESETFVGDYTLSFWRNGKVQHCRIHSRQDAGTPKFFLTDNLVFDSLYDLITHYQQVPLRCNEFEMRLSEPVPQTNAHESKEWYHASLTRAQAEHMLMRVPRDGAFLVRKRNEPNSYAISFRAEGKIKHCRVQQEGQTVMLGNSEFDSLVDLISYYEKHPLYRKMKLRYPINEEALEKIGTAEPDYGALYEGRNPGFYVEANPMPTFKCAVKALFDYKAQREDELTFTKSAIIQNVEKQDGGWWRGDYGGKKQLWFPSNYVEEMINPAILEPEREHLDENSPLGDLLRGVLDVPACQIAIRPEGKNNRLFVFSISMPSVAQWSLDVAADSQEELQDWVKKIREVAQTADARLTEGKMMERRKKIALELSELVVYCRPVPFDEEKIGTERACYRDMSSFPETKAEKYVNKAKGKKFLQYNRLQLSRIYPKGQRLDSSNYDPLPMWICGSQLVALNFQTPDKPMQMNQALFMAGGHCGYVLQPSTMRDEAFDPFDKSSLRGLEPCVICIEVLGARHLPKNGRGIVCPFVEIEVAGAEYDSTKQKTEFVVDNGLNPVWPAKPFHFQISNPEFAFLRFVVYEEDMFSDQNFLAQATFPVKGLKTGYRAVPLKNNYSEDLELASLLIKIDIFPAKENGDLSPFSGTSLRERASDASSQLFHVRAREGSFEARYQQPFEDFRISQEHLADHFDSRERRAPRRTRVNGDNRL
